Measurements published in PubChem BioAssay AID504834 (National Center for Advancing Translational Sciences (NCATS), 2011).
The campaign covered roughly 320,000 compounds. About 22,000 (6.9%) were called active. Inconclusive means that the source gave no clear call. Such entries were picked first, then a sample of the others. The call rests on the fitted dose curve; in most records, active means well fitted inhibition curve with a large enough effect; inconclusive means small, poorly fitted or top-dose-only effect, or another doubt; inactive means no such curve, though single readings can be large or run the other way. A potency beside an inconclusive call is a rough fit, not a confirmed value.

Test: Primary qHTS for delayed death inhibitors of the malarial parasite plastid, 96 hour incubation
Conditions: P. falciparum luciferase reporter growth; series mostly up to 28.7 µM
Outline: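 Luminescence readout: decreased luciferase signal marks inhibited growth of reporter-expressing P. falciparum in infected red cells (2% hematocrit, 0.05% parasitemia final), exposed to compound two generations (96 h, 37 C, 5% CO2).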
On the % scale 0 is the no-effect control and ±100 the full control effect; potency means the concentration at half of the fitted maximal effect.

| Compound | Potency | activity change, negative = inhibition |
| --- | --- | --- |
| Cc1cccc(C)c1NC(=O)c1nc(S(=O)(=O)Cc2ccccc2)ncc1Cl | inconclusive: 13.1 µM [inhibitor, single point] | – |
| CCOC(=O)c1c(C)[nH]c(C2=NNC(=Nc3ccc(OCC)cc3)SC2)c1C | active: 14.7 µM | – |
| CC(C)OC(=O)c1cc2c(ccn2C)n1CC(=O)N(Cc1ccccc1)c1ccccc1 | inconclusive: 18.5 µM [inhibitor, single point] | – |
| COc1ccc(S(=O)(=O)N(CC(=O)Nc2cc(C)on2)Cc2ccccc2)cc1 | – | inactive: 1.15% [at 5.75 µM] |
| C/C(CC(=O)NC(C)(C)C)=N\NC(N)=S | inactive | – |
| COc1ccc(C2CC(c3ccc(C)o3)=NN2C(C)=O)cc1 (configuration not stated) | inconclusive: 18.5 µM [inhibitor, single point] | – |
| Cc1ccc(C(=O)NC(C)c2nc3ccccc3n2CC(=O)Nc2c(C)cc(C)cc2C)cc1 (configuration not stated) | inconclusive: 11.7 µM [inhibitor, single point] | – |
| c1ccc(-c2oc3ncnc(NCCCn4ccnc4)c3c2-c2ccccc2)cc1 | inactive | – |
| Cc1[nH]n(-c2ccc([N+](=O)[O-])cc2)c(=O)c1C=NCCc1ccc(S(N)(=O)=O)cc1 | inconclusive: 11.7 µM [inhibitor, single point] | – |
| CCN1/C(=C2/SC(=S)N(NC(C)=O)C2=O)Sc2ccc(OC)cc21 | inconclusive: 13.1 µM [inhibitor, partial curve, poor fit] | – |
| C/C(=N\NC(=S)NCCc1ccccc1)c1ccc(Cl)cc1Cl | inactive | – |
| Cn1c(Cc2ccc3c(c2)OCO3)nnc1SCC(=O)N1CCc2ccccc2C1 | inactive | – |
| COc1ccccc1N1CSC2=C(C#N)C(c3ccc(SC)cc3)CC(=O)N2C1 (configuration not stated) | inactive | – |
| CCCc1cc(NC(=O)CCl)n(-c2ccccc2)n1 | inconclusive: 14.7 µM [inhibitor, single point] | – |
| CN1C(=O)/C(=C/c2ccc(OCc3ccc(F)cc3)cc2)N(C)C1=S | inconclusive: 18.5 µM [inhibitor, single point] | – |
| COc1ccc(CC2(CO)CCN(S(=O)(=O)c3c(C)nn(C)c3C)CC2)cc1 | inactive | – |
| Cc1cc2cc(C)c(NCCNC(=O)c3ccccc3Cl)nc2cc1C | inconclusive: 9.28 µM [inhibitor, single point] | – |
| C/C(O)=C(\C#N)c1nnc2n1CCCCC2 | inconclusive: 18.5 µM [inhibitor, single point] | – |
| Fc1ccc2c(c1)c1n[nH]c(=S)nc1n2CCc1ccccc1 | inactive | – |
| CCN(CC)CC(=O)c1c[nH]c2ccccc12 | active: 2.94 µM | – |
| Cc1ccc(-c2nc(CS(=O)(=O)CC(=O)NCc3cccc(F)c3)c(C)o2)cc1 | inconclusive: 18.5 µM [inhibitor, single point] | – |
| COc1ccc(COC(=O)N/N=C(\C)CC(=O)NCc2ccc(Cl)cc2)cc1 | inconclusive: 1.31 µM [inhibitor, partial curve, poor fit] | – |
| Cc1nonc1C(=O)N1CCCC(N2CCN(c3ccc(F)cc3)CC2)C1 (configuration not stated) | inconclusive: 10.4 µM [inhibitor, single point] | – |
| CC(C)(Oc1ccc(C2CCCc3ccccc32)cc1)C(=O)O (configuration not stated) | inactive | – |

| Compound | Potency | activity change, negative = inhibition |
| --- | --- | --- |
| CC(=O)NCC(=O)N(Cc1ccco1)C1(C(=O)NC2CCCC2)CCCCC1 | inconclusive: 18.5 µM [inhibitor, single point] | – |
| O=C(CCN1C(=O)/C(=C/c2ccccc2Cl)SC1=S)NC1CCS(=O)(=O)C1 (configuration not stated) | inconclusive: 9.28 µM [inhibitor, partial curve, poor fit] | – |
| COc1ccc(CC2(CO)CCN(C(C)Cc3ccc(Cl)cc3)CC2)cc1 (configuration not stated) | inactive | – |
| Cc1nc(NC(=O)C23CC4CC(CC(C4)C2)C3)sc1Cc1ccc2c(c1)OCO2 | active: 1.65 µM | – |
| CCOn1c(=O)c(C)[n+]([O-])c2ccccc21 | inconclusive: 18.5 µM [inhibitor, single point] | – |
| CC(OC(=O)CCCN=C1NS(=O)(=O)c2ccccc21)C(=O)Nc1ccc(F)cc1Cl (configuration not stated) | inactive | – |
| COc1cccc(N2C(=O)CC(N3CCN(c4ccc([N+](=O)[O-])cc4)CC3)C2=O)c1 (configuration not stated) | inactive | – |
| COc1ccc(-c2cc(CS(=O)(=O)c3ccccc3)on2)cc1 | inactive | – |
| Cc1ccc(/C=N/NC(=O)c2cccc(NC(=O)c3ccccc3C)c2)o1 | inactive | – |
| CN(C)S(=O)(=O)c1cccc(NC(=S)NC23CC4CC(CC(C4)C2)C3)c1 | inconclusive: 14.7 µM [inhibitor, single point] | – |
| COc1cccc(CNS(=O)(=O)c2c(C)[nH]c(C)c2C(=O)N2CCCC2)c1 | inactive | – |
| O=C(N/N=C/c1cccc([N+](=O)[O-])c1)c1nc2ccccc2c(=O)[nH]1 | inactive | – |
| CCc1ccccc1NC(=O)NNC(=O)c1ccc2ccccc2c1O | inconclusive: 2.94 µM [inhibitor, full curve, poor fit] | – |
| COc1ccc(Nc2nc(-c3ccccc3)c(C(=O)Nc3cccnc3)s2)cc1 | inconclusive: 0.208 µM [inhibitor, full curve, poor fit] | – |
| COCCNC(=O)C(c1ccc(F)cc1)N(C(=O)CCC(=O)Nc1nccs1)c1ccc(C)cc1 (configuration not stated) | inactive | – |
| CC12CCC(C(=O)N3CCCCC3)([C@H](Br)C1=O)C2(C)C (some centres not stated) | inactive | – |
| CCCCNC(=O)c1ccc2c(c1)ncn2C1CCCCC1 | inconclusive: 2.33 µM [inhibitor, full curve] | – |
| Cc1csc(NC(=O)CSc2nnc(C)n2Cc2ccco2)n1 | inconclusive: 14.7 µM [inhibitor, single point] | – |
| Cc1ccnn1-c1ccc(C(=O)N2CCCN(S(=O)(=O)c3ccc(F)cc3)CC2)cc1 | inconclusive: 0.657 µM [inhibitor, full curve, poor fit] | – |
| CC1(C)Cc2c(c(N3CCOCC3)nc3sc(C#N)c(N)c23)CS1 | inconclusive: 0.828 µM [inhibitor, full curve, poor fit] | – |
| Cc1noc(C)c1COc1ccc(C(=O)NCC(c2c(F)cccc2Cl)N(C)C)cc1 (configuration not stated) | active: 9.28 µM | – |
| COc1ccc(S(=O)(=O)N2CCCCC2)cc1NC(=O)C1CC(=O)N(Cc2ccccc2)C1 (configuration not stated) | active: 11.7 µM | – |
| Cc1cc(=O)oc2ccc(OCC(=O)N(Cc3ccc(F)cc3)Cc3ccco3)cc12 | inconclusive: 4.15 µM [inhibitor, single point] | – |
| Cc1onc(-c2c(Cl)cccc2Cl)c1COC(=O)c1ccc(Cl)cc1[N+](=O)[O-] | inconclusive: 11.7 µM [inhibitor, single point] | – |

No new results follow: an excerpt of the list.

| Compound | Potency | activity change, negative = inhibition |
| --- | --- | --- |
| COc1ccc(C2CC(c3ccc(C)o3)=NN2C(C)=O)cc1 (configuration not stated) | inconclusive: 18.5 µM [inhibitor, single point] | – |
| Cc1ccc(C(=O)NC(C)c2nc3ccccc3n2CC(=O)Nc2c(C)cc(C)cc2C)cc1 (configuration not stated) | inconclusive: 11.7 µM [inhibitor, single point] | – |

Carrying on:

| Compound | Potency | activity change, negative = inhibition |
| --- | --- | --- |
| Cc1ccccc1-n1nc2c(c1NC(=O)c1cccs1)CS(=O)(=O)C2 | inactive | – |
| O=C(NNC(=O)C(c1ccccc1)c1ccccc1)c1cccs1 | inconclusive: 18.5 µM [inhibitor, single point] | – |
| COc1ccc(NC(=O)C(CC(C)C)NC(=O)C2CCCCC2)c(OC)c1 (configuration not stated) | inconclusive: 10.4 µM [inhibitor, single point] | – |
| CCOC(=O)c1cc(NC(=O)c2ccc(Cl)cc2)c(=O)oc1-c1ccccc1 | inactive | – |
| CN(C(=O)COc1ccc2c(-c3ccccc3)cc(=O)oc2c1)C1CCS(=O)(=O)C1 (configuration not stated) | inconclusive: 10.4 µM [inhibitor, single point] | – |
| Cc1ccc(N(NC(=O)C(O)(c2ccccc2)c2ccccc2)C(=O)CCl)cc1 | inconclusive: 9.28 µM [inhibitor, partial curve, poor fit] | – |
| CCc1ccccc1-n1nnnc1SCC(=O)Nc1cc(C)on1 | active: 9.28 µM | – |
| COc1ccccc1C(=O)Nc1ccccc1N1CCN(C(=O)c2ccc(Cl)cc2)CC1 | inconclusive: 11.7 µM [inhibitor, partial curve] | – |
| O=C(NC1CC1)c1ccc(CSCc2ccccc2Cl)o1 | inactive | – |
| COc1ccc2nc(C)cc(NCc3ccc(F)cc3)c2c1 | active: 2.62 µM | – |
| O=C(Nc1ncc(Cc2cccc(Cl)c2)s1)C1=NCCN1 | inconclusive: 11.7 µM [inhibitor, partial curve, poor fit] | – |
| Cc1ccc(C)c(-n2c(SCC(=O)NC(C(=O)O)C(C)C)nnc2-c2cccc(Cl)c2)c1 (configuration not stated) | inconclusive: 18.5 µM [inhibitor, single point] | – |
| COc1ccc(/C=C2\SC(=S)N(CCC(=O)Nc3ccccc3C(=O)O)C2=O)cc1 | inactive | – |
| Nc1nnc(SCC(=O)NNC(=O)c2ccc(F)cc2)s1 | inactive | – |
| CCc1ccc(N2CN(Cc3ccco3)CNC2=S)cc1 | inconclusive: 18.5 µM [inhibitor, partial curve, poor fit] | – |
| COc1cc2c(cc1OC)CN(C(=O)C1CCCN1S(=O)(=O)c1ccc(C)cc1)CC2 (configuration not stated) | inactive | – |
| Oc1cccc2c(NC(=S)Nc3ccc(SC(F)F)cc3)cccc12 | inactive | – |
| O=C1N(Cc2cccnc2)C[C@@H]2C[C@@H](c3ccc4nonc4c3)N3CCC[C@@]123 | inactive | – |
| CCN(CC)c1ccc2c(C)c(Cl)c(=O)oc2c1 | inconclusive: 18.5 µM [inhibitor, single point] | – |
| O=C(NC(NNc1ccc([N+](=O)[O-])cc1)(C(F)(F)F)C(F)(F)F)c1ccccc1Cl | inconclusive: 1.65 µM [inhibitor, full curve] | – |
| Cc1cc(=O)[nH]c(/N=C(\N)Nc2ccc(SC(F)F)cc2)n1 | – | inactive: 31% [at 5.75 µM] |
| CC(C)c1csc(CN2CCN(CCc3ccccc3)C(CCO)C2)n1 (configuration not stated) | active: 1.65 µM | – |
| COc1ccc(OC)c(/C=N/NC(=O)C(=O)N2CCCC2)c1 | inconclusive: 18.5 µM [inhibitor, single point] | – |
| COc1ccc(N(C(=O)C2COc3ccccc3O2)C(C(=O)NC2CCCCC2)c2ccccc2)cc1OC (configuration not stated) | inconclusive: 18.5 µM [inhibitor, single point] | – |
